Measured values as given in PubChem BioAssay AID1671190 (National Center for Advancing Translational Sciences (NCATS), 2021).
Values joined by “and” are separate entries in the source; they are usually repeats but may differ in a detail not shown here. Equal values may be shown once. Screen size: about 580,000 compounds; about 6,100 (1.1%) were called active. Inconclusive means that the source gave no clear call. Such entries were picked first, then a sample of the others. The call rests on the fitted dose curve; in most records, active means well fitted inhibition curve with a large enough effect; inconclusive means small, poorly fitted or top-dose-only effect, or another doubt; inactive means no such curve, though single readings can be large or run the other way. A potency beside an inconclusive call is a rough fit, not a confirmed value.

The chains behind the UniProt entries cited, without tags or fusion partners.
UniProt P18054, whole entry, looked up: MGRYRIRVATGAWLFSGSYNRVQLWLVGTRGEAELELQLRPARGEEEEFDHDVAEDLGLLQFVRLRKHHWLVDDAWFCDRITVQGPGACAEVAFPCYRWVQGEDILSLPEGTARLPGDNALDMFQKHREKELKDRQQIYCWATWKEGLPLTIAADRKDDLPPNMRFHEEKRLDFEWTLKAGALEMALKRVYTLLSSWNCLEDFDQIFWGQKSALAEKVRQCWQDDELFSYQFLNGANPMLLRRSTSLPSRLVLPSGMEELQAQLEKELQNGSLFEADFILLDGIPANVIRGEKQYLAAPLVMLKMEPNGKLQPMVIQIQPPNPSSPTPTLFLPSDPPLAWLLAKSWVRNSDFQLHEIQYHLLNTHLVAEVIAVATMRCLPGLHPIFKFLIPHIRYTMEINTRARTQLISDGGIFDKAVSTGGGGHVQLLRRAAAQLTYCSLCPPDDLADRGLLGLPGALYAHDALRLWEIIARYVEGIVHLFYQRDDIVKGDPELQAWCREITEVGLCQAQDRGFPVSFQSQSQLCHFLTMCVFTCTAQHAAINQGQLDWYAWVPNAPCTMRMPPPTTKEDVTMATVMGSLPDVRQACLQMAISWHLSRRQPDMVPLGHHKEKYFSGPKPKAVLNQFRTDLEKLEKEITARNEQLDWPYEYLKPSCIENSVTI

molecular target: Polyunsaturated fatty acid lipoxygenase ALOX12 (Homo sapiens) (UniProt P18054); assay: Primary qHTS assay for inhibitors of human arachidonate 12S-lipoxygenase (ALOX12): Round 2; conditions: purified 12hLO, xylenol orange hydroperoxide absorbance; series mostly up to 108 µM
Procedure, shortened: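 Purified human 12hLO at 150 nM in 25 mM Hepes, 0.01% Triton X-100, pH 7.0, preincubated 15 min at room temperature with compound. Reaction started with 40 uM arachidonic acid, 30 min at room temperature. Hydroperoxide measured by Fe-xylenol orange, 573/405 nm absorbance ratio.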
Potency means the concentration at half of the fitted maximal effect.

Row | Structure (SMILES) | Potency
1 | CCC(=O)N1CCn2c1nc1ccccc12 | inconclusive: 141 µM [inhibitor, single point]
2 | Cc1nc2ccccc2c(C)c1C(=O)c1ccc(Cl)cc1 | active: 7.94 µM
3 | COc1ccc(C(=O)N2CCCCC(NC(=O)NCc3ccco3)C2)cc1 (centres undefined) | inactive
4 | O=C(Nc1cccc(Cl)c1)C1CCCN(C2=NS(=O)(=O)c3ccccc32)C1 (centres undefined) | inconclusive: 112 µM [inhibitor, single point]
5 | OC1(CN2CCCN(c3nc4ccccc4s3)CC2)CNCCOC1 (centres undefined) | inactive
6 | C=CCNC(=O)c1cc(-c2ccccc2C)nc2ccccc12 | inconclusive: 25.1 µM [inhibitor, single point]
7 | CCC1(O)CCC12CCN(C(=O)c1cccc(C)c1)CC2 (centres undefined) | inactive
8 | COc1ccc(NC(=O)Nc2c(C)noc2-c2ccccc2)cc1 | inconclusive: 50.1 µM [inhibitor, partial curve, poor fit]
9 | COc1cccc(-c2cc(-c3ccc(=O)[nH]c3)c3cncn3c2)c1 | inconclusive: 28.2 µM [inhibitor, full curve]
10 | CCCS(=O)(=O)N1CCN(Cc2c[nH]c3ccccc23)CC1 | inconclusive: 1.12 µM [inhibitor, full curve]
11 | CCOCc1nnc(NC(=O)c2cc(Cl)ccc2OC)s1 | inconclusive: 7.94 µM [inhibitor, full curve, poor fit]
12 | O=C1CCN(C(=O)C2CCN(S(=O)(=O)c3ccc4c(c3)CCC4)CC2)CCCCCCN1 | inactive
13 | Cc1ccc2ncn(Cc3coc(-c4cccs4)n3)c(=O)c2c1 | inconclusive: 50.1 µM [inhibitor, single point]
14 | CCCC1N=C2c3ccccc3N=C(SCC(=O)Nc3ccc(OC)c(Cl)c3)N2C1=O (centres undefined) | inconclusive: 4.47 µM [inhibitor, full curve, poor fit]
15 | CCOc1ccc2c(c1)[nH]c(=S)n2C | inconclusive: 44.7 µM [inhibitor, partial curve, poor fit]
16 | COC(=O)c1cc(NS(=O)(=O)c2ccc(N3CCOCC3)c([N+](=O)[O-])c2)cc(C(=O)OC)c1 | inconclusive: 28.2 µM [inhibitor, partial curve, poor fit]
17 | CC1=NNC(=O)C1CCC(=O)N/N=C(\C)c1ccccc1 (centres undefined) | inconclusive: 31.6 µM [inhibitor, full curve, poor fit]
18 | Cc1ccc(NC(=O)/C(C#N)=C\c2ccccc2OC(F)F)c(C)c1 | inconclusive: 50.1 µM [inhibitor, partial curve, poor fit]
19 | COc1cc(C(C#N)N2CCC(c3ccccc3)=N2)ccc1O (centres undefined) | inconclusive: 31.6 µM [inhibitor, single point]
20 | O=C(Cn1c2ccccc2c(=O)c2ccccc21)Nc1ccccc1F | inconclusive: 44.7 µM [inhibitor, partial curve, poor fit]
21 | CSc1ccc(CCNC(=O)c2ccc(CS(=O)Cc3ccc(Cl)cc3)o2)cc1 (centres undefined) | inactive and inconclusive: 112 µM [inhibitor, partial curve, poor fit]
22 | COc1ccc(S(=O)(=O)N2CCCC(C(=O)NCc3cccnc3)C2)cc1 (centres undefined) | inconclusive: 35.5 µM [inhibitor, partial curve, poor fit]
23 | Cn1c(SCc2csc(-c3ccc4c(c3)OCO4)n2)nnc1C1CCCCC1 | inconclusive: 112 µM [inhibitor, partial curve, poor fit]

Row | Structure (SMILES) | Potency
24 | CC(=O)c1cccc(OCc2ccc(C(N)=O)cc2)c1 | inactive
25 | CCN(CC(=O)Nc1c(F)cccc1F)C(=O)CCc1nc2sc3c(c2c(=O)[nH]1)CCCC3 | active: 14.1 µM
26 | Cc1nc(NCc2ccccc2)sc1C(=O)N1CCC(C(N)=O)CC1 | inactive
27 | COC(=O)c1nc(NC(=O)c2cc(OC)c(OC)c(OC)c2)n[nH]1 | inactive
28 | COC(=O)c1ccccc1NC(=O)c1cc[n+](C)cc1 | inconclusive: 39.8 µM [inhibitor, partial curve, poor fit]
29 | COc1ccc(S(=O)(=O)Cc2nnnn2-c2ccc(Cl)c(Cl)c2)cc1 | inactive
30 | Cc1oc(-c2ccccc2Cl)[n+]([O-])c1C | inconclusive: 15.8 µM [inhibitor, full curve]
31 | CCOc1cc(NC(=O)C(C)C)c(OCC)cc1NC(=O)Nc1ccccc1 | inconclusive: 100 µM [inhibitor, single point]
32 | Cc1nc2ccc(NS(=O)(=O)c3ccc(Br)cc3)cc2s1 | inconclusive: 28.2 µM [inhibitor, partial curve, poor fit]
33 | NC(=O)c1cc(Cl)ccc1OCc1ccc(OC(F)(F)F)cc1 | inconclusive: 56.2 µM [inhibitor, partial curve, poor fit]
34 | CC(C)c1cc(C(=O)OCC(=O)NC(=O)NCc2ccco2)c(O)c(C(C)C)c1 | inconclusive: 39.8 µM [inhibitor, partial curve, poor fit]
35 | Cn1cc(C(=O)NC2CCN(Cc3noc(C(C)(C)C)n3)CC2)cn1 | inactive
36 | CCC(CO)(CO)N(CC(=O)Nc1ccc(OC)cc1)CC(=O)Nc1ccc(OC)cc1 | inactive
37 | N=c1c(C(=O)NCc2ccccc2)cc2c(=O)n3ccccc3nc2n1Cc1ccco1 | inconclusive: 56.2 µM [inhibitor, partial curve, poor fit]
38 | CN(C)c1ccc(C(CNS(=O)(=O)c2ccc([N+](=O)[O-])cc2)N2CCCC2)cc1 (centres undefined) | inactive
39 | CN1CCc2c(n(CC(O)CN(CCO)CCO)c3ccccc23)C1=O (centres undefined) | inactive
40 | COc1ccc(NN=Nc2nc3c([nH]2)c(=O)n(C)c(=O)n3C)cc1 | inconclusive: 22.4 µM [inhibitor, partial curve, poor fit]
41 | CCc1cccc(OCCOCCN2CCCC2)c1 | inconclusive: 1.12 µM [inhibitor, full curve, poor fit]
42 | O=C(NC1CCCC1)C1C2C=CC3(CN(Cc4cccs4)C(=O)C13)O2 (centres undefined) | inconclusive: 100 µM [inhibitor, single point]
43 | Cc1cccc(-c2ocnc2C(=O)Nc2ccc(Cl)cc2)c1 | inconclusive: 44.7 µM [inhibitor, full curve, poor fit]
44 | Cc1onc(-c2c(Cl)cccc2Cl)c1NC(=O)NC1CCSC1 (centres undefined) | inconclusive: 100 µM [inhibitor, single point]
45 | O=C(CCSc1nc(Cl)nc2nc[nH]c12)NCCc1ccccc1 | inconclusive: 50.1 µM [inhibitor, partial curve, poor fit]
46 | COC(=O)C1=C(N)Oc2n[nH]c(-c3ccccc3)c2C12C(=O)N(Cc1ccc(F)cc1)c1ccccc12 (centres undefined) | inconclusive: 2.82 µM [inhibitor, full curve, poor fit]

Row | Structure (SMILES) | Potency
47 | O=C(c1cc2ccccn2n1)N1CCN(Cc2ccccc2)CC1 | inconclusive: 89.1 µM [inhibitor, single point]
48 | Cc1cc(C)nc(CCNC(=O)CC2C(=O)NCCN2Cc2ccc(F)cc2Cl)n1 (centres undefined) | inactive
49 | COCCn1ncc(N2CCCC(CC(=O)NCc3ccc(C)cc3)C2)cc1=O (centres undefined) | inconclusive: 79.4 µM [inhibitor, partial curve, poor fit]
50 | Cc1ccc(S(=O)(=O)c2nc(Nc3ccccc3C#N)sc2Cl)cc1 | inactive
51 | COc1ccc(C2=NCCn3nc4cc(OC)ccc4c32)cc1 | inconclusive: 89.1 µM [inhibitor, single point]
52 | CNC(=O)c1noc(CN2CCCC(CCc3ccccc3C(F)(F)F)C2)n1 (centres undefined) | inconclusive: 12.6 µM [inhibitor, partial curve, poor fit]
53 | Cc1cccc(N2CCN(C(=O)c3ccc(NC(=O)c4nsc5ccccc45)cc3)CC2C)c1 (centres undefined) | inactive
54 | Cc1cccc(C)c1OCC(=O)NCc1nnc(SCC(=O)NC2CCCCC2C)n1C (centres undefined) | active: 7.08 µM
55 | Oc1cccc(C(Nc2nccs2)c2ccc3cccnc3c2O)c1 (centres undefined) | inconclusive: 44.7 µM [inhibitor, partial curve, poor fit]
56 | O=C(CN1C2CCCC1CC(NC(=O)C1CCCCC1)C2)Nc1ccccc1C(F)(F)F (centres undefined) | inactive
57 | CC(=O)c1ccc(-c2ccc(-c3cc(=O)oc4c(C(C)C)ccc(C)c34)cc2)cc1 | inactive
58 | O=C(Nc1ccc(F)cc1)c1ccccc1F | inactive
59 | CCn1cc(C(=O)CSc2nnc(C)s2)c2ccccc21 | inconclusive: 44.7 µM [inhibitor, partial curve, poor fit]
60 | N#C/C(=C(/O)COc1ccccc1)c1nnc2n1CCCCC2 | inconclusive: 2 µM [inhibitor, partial curve, poor fit]
61 | Cc1ccc(N2CCN(C(=S)Nc3ccccc3)CC2)cc1 | inactive
62 | O=C(CN1C(=O)c2ccccc2S1(=O)=O)NCc1ccccc1Cl | inactive
63 | O=C(Nc1cccc(Cl)c1)C1CC2CCCC(C1)C2=O (centres undefined) | inconclusive: 89.1 µM [inhibitor, partial curve, poor fit]
64 | CSc1cccc(N=Cc2ccc(-c3ccccc3Cl)o2)c1 | inconclusive: 5.01 µM [inhibitor, full curve, poor fit]
65 | NC(Cc1ccccc1)C(=O)N1CCCCC1 (centres undefined) | inactive
66 | N#CCOc1ccc(NC(=O)c2cc(=O)[nH]c3ccccc23)cc1 | inactive
67 | CCOc1ccc(CNc2ncc(-c3ccccc3)n2C)cc1 | inconclusive: 1.58 µM [inhibitor, full curve]
68 | Cc1ccc(C)c(N2CCN(C(=O)c3ccc4[nH]c(C)c(C)c4c3)CC2)c1 | inconclusive: 50.1 µM [inhibitor, partial curve, poor fit]
69 | CCOC(=O)c1cnc2c(OC)cccc2c1Nc1ccc2c(c1)OCCO2 | inconclusive: 70.8 µM [inhibitor, single point]

14 of the compounds above, as comma-separated lines:
Row,Structure (SMILES),Potency
3,COc1ccc(C(=O)N2CCCCC(NC(=O)NCc3ccco3)C2)cc1 (centres undefined),inactive
14,CCCC1N=C2c3ccccc3N=C(SCC(=O)Nc3ccc(OC)c(Cl)c3)N2C1=O (centres undefined),"inconclusive: 4.47 µM [inhibitor, full curve, poor fit]"
16,COC(=O)c1cc(NS(=O)(=O)c2ccc(N3CCOCC3)c([N+](=O)[O-])c2)cc(C(=O)OC)c1,"inconclusive: 28.2 µM [inhibitor, partial curve, poor fit]"
19,COc1cc(C(C#N)N2CCC(c3ccccc3)=N2)ccc1O (centres undefined),"inconclusive: 31.6 µM [inhibitor, single point]"
24,CC(=O)c1cccc(OCc2ccc(C(N)=O)cc2)c1,inactive
29,COc1ccc(S(=O)(=O)Cc2nnnn2-c2ccc(Cl)c(Cl)c2)cc1,inactive
41,CCc1cccc(OCCOCCN2CCCC2)c1,"inconclusive: 1.12 µM [inhibitor, full curve, poor fit]"
45,O=C(CCSc1nc(Cl)nc2nc[nH]c12)NCCc1ccccc1,"inconclusive: 50.1 µM [inhibitor, partial curve, poor fit]"
49,COCCn1ncc(N2CCCC(CC(=O)NCc3ccc(C)cc3)C2)cc1=O (centres undefined),"inconclusive: 79.4 µM [inhibitor, partial curve, poor fit]"
50,Cc1ccc(S(=O)(=O)c2nc(Nc3ccccc3C#N)sc2Cl)cc1,inactive
59,CCn1cc(C(=O)CSc2nnc(C)s2)c2ccccc21,"inconclusive: 44.7 µM [inhibitor, partial curve, poor fit]"
63,O=C(Nc1cccc(Cl)c1)C1CC2CCCC(C1)C2=O (centres undefined),"inconclusive: 89.1 µM [inhibitor, partial curve, poor fit]"
64,CSc1cccc(N=Cc2ccc(-c3ccccc3Cl)o2)c1,"inconclusive: 5.01 µM [inhibitor, full curve, poor fit]"
65,NC(Cc1ccccc1)C(=O)N1CCCCC1 (centres undefined),inactive
